Test system: Jurkat IL-2 Production
Test: Jurkat IL-2 Production Assay
Type: cell-based
Conditions: Homo sapiens, Jurkat cell (ATCC), 18-20 h incubation, PHA 5 μg/mL with 1% FBS, or PMA/Ionomycin with 30% FBS (table does not say which)
Method: Jurkat IL-2 Production Assay
Cell: Jurkat cell (ATCC) was grown in RPMI 1640 with 10% FBS and 1% penicillin/streptomycin. The cell density was kept at 1.2-1.8×10^6/mL in culture flask before seeding into culture plate, and the cell density in the plate was 0.5×10^6/[…]/well.
Culture media: RPMI 1640 with 1% FBS or 30% FBS for high serum assay.
Test compound: serial dilution was done in 100% DMSO, and intermediate dilution was done with RPMI 1640 medium with 1% FBS. The DMSO final concentration in culture well was 0.25%.
Stimulant: PHA (Sigma#L9017-10MG) was used for the assay with 1% FBS in culture medium, and added after 10 minutes exposure of cell to compound/DMSO. The PHA final concentration in culture well was 5 μg/mL. PMA (Sigma# P-8139 5MG)/Ionomycin (Sigma# 10634-5MG) was used for the assay with 30% FBS in culture medium, and added at same time point as the 1% FBS culture assay. The final concentration of PMA was 50 ng/mL, and Ionomycin final concentration was 500 ng/mL.
Incubation: at 37° C. with 5% CO2 and 95% humidity for 18 h˜20 h.
IC50: IC50 was calculated with the data analysis software XLfit4, General Pharmacology model 251.

SMILES: Cn1nc(-c2cnc(N)nc2)cc1-c1ccc2[nH]c(-c3c(F)cccc3F)cc2c1 [Example 107, 5-{5-[2-(2,6-Difluoro-phenyl)-1H-indol-5-yl]-1-methyl-1H-pyrazol-3-yl}-pyrimidin-2-ylamine]
- IC50: 32 nM
